Test results reported in PubChem BioAssay AID1487 (National Center for Advancing Translational Sciences (NCATS), 2009).
This is one part of the list. Shown are side measurements of this screen, not its main read-out; they come without a call. Most of these compounds were active or inconclusive in the main read-out, so they are no random draw. Words in brackets tell the shape of the fitted curve; partial curves, single points and poor fits give uncertain potencies.

Assay: qHTS Assay for Modulators of Lamin A Splicing
Details: HeLa LMNA splicing GFP/RFP minigene ratio, 48 h
Summary of the method: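 Read-out is the ratio of GFP to DsRed2 object intensity, acquired by 488 nm laser-scanning cytometry on HeLa lamin A-EGFP minigene reporter cells. Compound incubation 48 hrs at 37 °C in Opti-MEM with 2% FBS; DMSO 0.5% final.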

[1] = measured here: RFP viability control channel
[2] = measured here: GFP splicing reporter channel

Row | Compound | AC50 [1] | AC50 [2]
1 | N#CC1(Cc2ccc(Cl)cc2)c2ccccc2C=CN1C(=O)c1ccccc1 (stereo unspecified) | 10 µM [rising, single point] | 
2 | COc1ccc(C(C)(C)C)cc1S(=O)(=O)n1ccnc1C |  | 0.00794 µM [rising, full curve, poor fit]
3 | CCCC(=O)Nc1cccc(NC(=S)NC(=O)C(C)Oc2ccc(Cl)cc2Cl)c1 (stereo unspecified) | 17.8 µM [rising, single point] | 14.1 µM [rising, single point]
4 | C=CC[n+]1c(-c2ccc(Cl)cc2Cl)csc1Nc1ccc(NC(C)=O)cc1 | 31.6 µM [rising, single point] | 
5 | Cc1nnc(N/N=C/c2ccccc2O)n1N | 7.08 µM [falling, partial curve] | 31.6 µM [falling, single point]
6 | O=C(NCc1cccnc1)/C(=C/c1ccc(-c2ccc(Cl)cc2)o1)S(=O)(=O)c1ccccc1 | 3.16 µM [falling, full curve] | 2.82 µM [falling, full curve]
7 | N#Cc1ccc(-c2ccccc2)nc1SCC(=O)c1cccc(Cl)c1 | 35.5 µM [falling, single point] | 35.5 µM [falling, single point]
8 | O=C(NCCc1ccccc1)c1ccc(-c2ccccc2C(F)(F)F)o1 | 6.31 µM [rising, partial curve, poor fit] | 
9 | CNC(=O)CSc1nnc(-c2ccc3c(c2)OCO3)n1C | 6.31 µM [falling, partial curve, poor fit] | 
10 | CCOC(=O)c1c(C)oc2ccc(O)c(CN3CCCCC3)c12 | 35.5 µM [rising, partial curve] | 
11 | O=S(=O)(c1ccc(Oc2ccccc2)cc1)N1CCOCC1 | 11.2 µM [rising, single point] | 
12 | CCOc1ccc(CNC(=O)CCCn2c(=O)c3cccn3c3ccccc32)cc1 | 35.5 µM [falling, single point] | 
13 | COCC(=O)Nc1c(I)c(C(=O)NC[C@@H](O)CO)c(I)c(C(=O)N(C)C[C@@H](O)CO)c1I | 0.00398 µM [falling, full curve, poor fit] | 2.24 µM [falling, single point]
14 | Cc1cccc(NC(=O)COc2ccc(Br)cc2/C=N/O)c1 | 35.5 µM [rising, single point] | 
15 | O=C(O)c1n[nH]nc1-c1ccccc1 | 1.78 µM [falling, full curve, poor fit] | 
16 | CC(Sc1nnnn1-c1ccccc1)C(=O)Nc1ccccc1-c1ccccc1 (stereo unspecified) | 15.8 µM [rising, single point] | 

Ordered by molecular weight (high to low): some entries from above
Row | Compound | AC50 [1] | AC50 [2]
12 | CCOc1ccc(CNC(=O)CCCn2c(=O)c3cccn3c3ccccc32)cc1 | 35.5 µM [falling, single point] | 
14 | Cc1cccc(NC(=O)COc2ccc(Br)cc2/C=N/O)c1 | 35.5 µM [rising, single point] | 
8 | O=C(NCCc1ccccc1)c1ccc(-c2ccccc2C(F)(F)F)o1 | 6.31 µM [rising, partial curve, poor fit] | 
